Experimental data: patent US9061984B2 (University of Louisville Research Foundation, Inc., priority 2008, dated 2015)
Values joined by “and” are separate entries in the source; they are usually repeats but may differ in a detail not shown here. Identical values can stand only once.

Columns and labels:
[1] = tested on: axenic amastigotes of L. amazonensis (strain MHOM/BR/76/LTB-012); conditions: IC50, macrophage/IC50, L. amazonensis; Table 7
[2] = tested on: Trypanosoma cruzi (Tulahuen C4); experiment: In vitro anti-T. cruzi activity (β-galactosidase CPRG colorimetric assay in VERO monolayer); assay type: cell-based
VERO cells = VERO cells IC50 (Table 5); assay type: cell-based, African green monkey; conditions: printed in the VERO IC50 cell of Table 5
[3] = IC50, VERO/IC50, T. cruzi, Table 2
[4] = Selectivity index = IC50, VERO/IC50, T. cruzi, Table 3

Row | Compound | SI [1] | SI [2, 3] | SI [2, 4] | further results
1 | COc1cccc(/C=C/C(=O)c2c(O)cc(O)cc2OC)c1 [Compound I-31, (2E)-1-(2,4-Dihydroxy-6-methoxyphenyl)-3-(3-methoxyphenyl)-2-propen-1-one] | 1.5 |  |  | 
2 | COc1cc(O)cc(O)c1C(=O)/C=C/c1ccccc1Br [Compound I-35, (2E)-3-(2-Bromophenyl)-1-(2,4-dihydroxy-6-methoxyphenyl)-2-propen-1-one] | 1.4 |  |  | 
3 | C=CCOc1cc(OC)c(C(=O)/C=C/c2ccccc2)c(OCC=C)c1 [Compound I-08, (2E)-1-[2-Methoxy-4,6-bis(2-propenyloxy)phenyl]-3-(phenyl)-2-propen-1-one] |  | 0.90 | 1.0 | 
4 | C=CCOc1cc(OC)c(C(=O)/C=C/c2ccc(C(F)(F)F)cc2)c(OCC=C)c1 [Compound I-12, (2E)-1-[2-Methoxy-4,6-bis(2-propenyloxy)phenyl]-3-[4-(trifluoromethyl)phenyl]-2-propen-1-one] |  | 0.46 | 0.5 | 
5 | C=CCOc1cc(OC)c(C(=O)/C=C/c2ccc(F)cc2)c(OCC=C)c1 [Compound I-23, (2E)-3-(4-Fluorophenyl)-1-[2-methoxy-4,6-bis(2-propenyloxy)phenyl]-2-propen-1-one] |  | 0.95 | 0.9 | 
6 | C=CCOc1cc(OC)c(C(=O)/C=C/c2ccc(C)cc2)c(OCC=C)c1 [Compound I-24, (2E)-1-[2-Methoxy-4,6-bis(2-propenyloxy)phenyl]-3-(4-methylphenyl)-2-propen-1-one] |  | 12.26 |  | 
7 | C=CCOc1cc(OC)c(C(=O)/C=C/c2cccc(OC)c2)c(OCC=C)c1 [Compound I-11, (2E)-1-[2-Methoxy-4,6-bis(2-propenyloxy)phenyl]-3-(3-methoxyphenyl)-2-propen-1-one] |  | 10.06 |  | 
8 | COc1cc(O)cc(O)c1C(=O)/C=C/c1ccccc1 [Compound I-29, (2E)-1-(2,4-Dihydroxy-6-methoxyphenyl)-3-(phenyl)-2-propen-1-one] | 1.7 |  |  | 
9 | Fc1ccccc1/C=N\Nc1ncnc2sc3c(c12)CCCC3 [II-27] |  |  |  | SI (VERO cells): 9
10 | COc1cc(O)cc(O)c1C(=O)/C=C/c1ccccc1F [Compound I-34, (2E)-1-(2,4-Dihydroxy-6-methoxyphenyl)-3-(2-fluorophenyl)-2-propen-1-one] | 1.4 |  |  | 
11 | C=CCOc1cc(OC)c(C(=O)/C=C/c2cc(OC)c(OC)c(OC)c2)c(OCC=C)c1 [Compound I-20, (2E)-1-[2-Methoxy-4,6-bis(2-propenyloxy)phenyl]-3-(3,4,5-trimethoxyphenyl)-2-propen-1-one] |  | 12.00 |  | 
12 | C=CCOc1cc(OC)c(C(=O)/C=C/c2ccc(OC)cc2)c(OCC=C)c1 [Compound I-10, (2E)-1-[2-Methoxy-4,6-bis(2-propenyloxy)phenyl]-3-(4-methoxyphenyl)-2-propen-1-one] |  | 6.59 and 4.67 | 4.7 | 
13 | COc1cc(O)cc(O)c1C(=O)/C=C/c1ccc(C(F)(F)F)cc1 [Compound I-32, (2E)-1-(2,4-Dihydroxy-6-methoxyphenyl)-3-[4-(trifluoromethyl)phenyl]-2-propen-1-one] | 2.0 |  |  | 
14 | C=CCOc1cc(OC)c(C(=O)/C=C/c2ccc(O)cc2)c(OCC=C)c1 [Compound I-09, (2E)-1-[2-Methoxy-4,6-bis(2-propenyloxy)phenyl]-3-(4-hydroxyphenyl)-2-propen-1-one] |  | 3.76 | 3.8 | 
15 | COc1cc(O)cc(O)c1C(=O)/C=C/c1ccc(Cl)cc1 [Compound I-33, (2E)-3-(4-Chlorophenyl)-1-(2,4-dihydroxy-6-methoxyphenyl)-2-propen-1-one] | 1.7 |  |  | 
16 | COc1cc(O)cc(O)c1C(=O)/C=C/c1ccc(O)cc1 [Compound I-30, (2E)-1-(2,4-Dihydroxy-6-methoxyphenyl)-3-(4-hydroxyphenyl)-2-propen-1-one] | 1.4 |  |  | 
17 | C=CCOc1cc(OC)c(C(=O)/C=C/c2ccc3c(c2)OCO3)c(OCC=C)c1 [Compound I-19, (2E)-3-(1,3-Benzodioxol-5-yl)-1-[2-methoxy-4,6-bis(2-propenyloxy)phenyl]-2-propen-1-one] |  | 6.68 and 5.42 | 5.4 | 
18 | C=CCOc1cc(OC)c(C(=O)/C=C/c2ccc(OC)cc2OC)c(OCC=C)c1 [Compound I-17, (2E)-3-(2,4-Dimethoxyphenyl)-1-[2-methoxy-4,6-bis(2-propenyloxy)phenyl]-2-propen-1-one] |  | 7.06 |  | 
19 | COc1cc(O)cc(O)c1C(=O)/C=C/c1ccc(C)cc1 [Compound I-41, (2E)-1-(2,4-Dihydroxy-6-methoxyphenyl)-3-(4-methylphenyl)-2-propen-1-one] | 2.2 |  |  | 
20 | C=CCOc1cc(OC)c(C(=O)/C=C/c2ccccc2F)c(OCC=C)c1 [Compound I-15, (2E)-3-(2-Fluorophenyl)-1-[2-methoxy-4,6-bis(2-propenyloxy)phenyl]-2-propen-1-one] |  | 2.62 | 2.6 | 
21 | C=CCOc1cc(OC)c(C(=O)/C=C/c2ccco2)c(OCC=C)c1 [Compound I-28, (2E)-3-(2-furanyl)-1-[2-methoxy-4,6-bis(2-propenyloxy)phenyl]-2-propen-1-one] |  | 15.70 |  | 
22 | C=CCOc1cc(OC)c(C(=O)/C=C/c2ccncc2)c(OCC=C)c1 [Compound I-26, (2E)-1-[2-Methoxy-4,6-bis(2-propenyloxy)phenyl]-3-(4-pyridinyl)-2-propen-1-one] |  | 1.92 | 1.9 | 
23 | COc1cc(O)cc(O)c1C(=O)/C=C/c1ccc(F)cc1 [Compound I-40, (2E)-1-(2,4-Dihydroxy-6-methoxyphenyl)-3-(4-fluorophenyl)-2-propen-1-one] | 2.4 |  |  | 
24 | COc1ccc(/C=C/C(=O)c2c(O)cc(O)cc2OC)c(OC)c1 [Compound I-36, (2E)-1-(2,4-Dihydroxy-6-methoxyphenyl)-3-(2,4-dimethoxyphenyl)-2-propen-1-one] | >50 |  |  | 
25 | C=CCOc1cc(OC)c(C(=O)/C=C/c2ccc([N+](=O)[O-])cc2)c(OCC=C)c1 [Compound I-13, (2E)-1-[2-Methoxy-4,6-bis(2-propenyloxy)phenyl]-3-(4-nitrophenyl)-2-propen-1-one] |  | 3.09 | 3.1 | 
26 | COc1cc(O)cc(O)c1C(=O)/C=C/c1ccc2c(c1)OCO2 [Compound I-06, (2E)-3-(1,3-Benzodioxol-5-yl)-1-(2,4-dihydroxy-6-methoxyphenyl)-2-propen-1-one] |  | 2.69 | 2.7 | 
27 | COc1ccc(/C=C/C(=O)c2c(O)cc(O)cc2OC)cc1 [Compound I-05, (E)-1-(2,4-Dihydroxy-6-methoxyphenyl)-3-(4-methoxyphenyl)-2-propen-1-one] |  | 0.84 |  | 
28 | C=CCOc1cc(OC)c(C(=O)/C=C/c2cc(OCC=C)c(Br)c(OCC=C)c2)c(OCC=C)c1 [Compound I-25, (2E)-3-(3,5-Bis(2-propenyloxy)-4-bromophenyl)-1-[2-methoxy-4,6-bis(2-propenyloxy)phenyl]-2-propen-1-one] |  | 13.94 |  | 
29 | Clc1ccc(/C=N\Nc2ncnc3sc4c(c23)CCCC4)cc1 [II-28] |  |  |  | SI (VERO cells): ≥ 10
30 | C=CCOc1cc(OC)c(C(=O)/C=C/c2ccc(Cl)cc2)c(OCC=C)c1 [Compound I-14, (2E)-3-(4-Chlorophenyl)-1-[2-methoxy-4,6-bis(2-propenyloxy)phenyl]-2-propen-1-one] |  | 1.21 | 1.2 | 
